For assay [1], the target named is DnaK (E. coli (endogenous in MC4100)) (UniProt P0A6Y8). As to the kind of experiment: selective ribosome profiling (immunoprecipitation of chaperone-bound ribosome-nascent chain complexes, sequencing of the mRNA footprints); DnaK immunoprecipitated with anti-DnaK antibody on Dynabeads from ATP-depleted (hexokinase) lysate after MNase digest and sucrose cushion; selected translatome normalised by the total translatome.

Sequences of proteins named here, by UniProt entry; tags and fusion partners are left off.
UniProt P0A6Y8: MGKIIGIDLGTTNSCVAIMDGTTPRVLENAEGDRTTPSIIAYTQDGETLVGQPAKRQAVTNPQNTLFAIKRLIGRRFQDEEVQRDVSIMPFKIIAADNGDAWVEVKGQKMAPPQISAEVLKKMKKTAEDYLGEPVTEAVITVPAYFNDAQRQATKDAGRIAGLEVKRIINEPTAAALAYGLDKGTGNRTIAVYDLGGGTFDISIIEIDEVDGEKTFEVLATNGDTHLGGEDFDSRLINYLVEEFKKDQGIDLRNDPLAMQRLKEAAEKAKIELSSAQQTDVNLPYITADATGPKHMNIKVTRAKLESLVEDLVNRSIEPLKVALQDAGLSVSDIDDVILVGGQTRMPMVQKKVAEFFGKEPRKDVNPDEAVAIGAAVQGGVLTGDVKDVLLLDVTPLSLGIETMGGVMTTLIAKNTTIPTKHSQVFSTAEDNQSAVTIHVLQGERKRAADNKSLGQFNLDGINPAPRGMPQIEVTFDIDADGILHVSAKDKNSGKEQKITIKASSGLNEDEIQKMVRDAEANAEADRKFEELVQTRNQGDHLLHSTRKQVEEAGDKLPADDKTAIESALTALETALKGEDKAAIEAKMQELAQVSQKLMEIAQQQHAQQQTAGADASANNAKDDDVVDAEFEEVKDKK
UniProt P0A6F5: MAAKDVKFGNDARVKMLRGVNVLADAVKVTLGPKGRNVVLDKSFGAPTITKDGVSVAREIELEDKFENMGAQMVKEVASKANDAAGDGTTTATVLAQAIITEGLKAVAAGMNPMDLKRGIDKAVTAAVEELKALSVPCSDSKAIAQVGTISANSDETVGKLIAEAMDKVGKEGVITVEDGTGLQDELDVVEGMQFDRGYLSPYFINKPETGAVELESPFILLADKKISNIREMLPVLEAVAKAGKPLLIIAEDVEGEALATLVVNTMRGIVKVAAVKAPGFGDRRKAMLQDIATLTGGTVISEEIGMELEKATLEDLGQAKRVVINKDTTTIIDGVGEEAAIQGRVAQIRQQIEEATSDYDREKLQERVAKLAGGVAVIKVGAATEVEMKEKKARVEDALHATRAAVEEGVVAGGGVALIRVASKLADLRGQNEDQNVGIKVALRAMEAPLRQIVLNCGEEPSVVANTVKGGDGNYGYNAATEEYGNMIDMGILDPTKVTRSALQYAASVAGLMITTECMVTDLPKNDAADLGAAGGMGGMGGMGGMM

The target of assay [2] is GroEL (E. coli (endogenous in MC4100)) (UniProt P0A6F5). As to the kind of experiment: selective ribosome profiling (immunoprecipitation of chaperone-bound ribosome-nascent chain complexes, sequencing of the mRNA footprints); GroEL immunoprecipitated with anti-GroEL antibody from ATP-depleted lysate cross-linked with 60 mM EDC; WT, Δtig and ΔdnaK strain backgrounds; selected translatome normalised by the total translatome.

The target of assay [3] is DnaK (E. coli (endogenous in E. coli cells)) (UniProt P0A6Y8). As to the kind of experiment: selective ribosome profiling (SeRP); immunoprecipitation of DnaK (anti-DnaK antibody on Dynabeads) with ribosome-nascent chain complexes; ATP depleted with hexokinase; MNase digest, sucrose cushion; ribosome footprints sequenced.

This is an account of results in paper PMC12065913.

No constants are given. Whether binding was seen depends on the method and setting. Some results given as binding are weak or reduced against the parent protein; the word gives no strength.

B1: nascent PlsB (protein, UniProt P0A7A7 1-807)
chain: MSGWPRIYYKLLNLPLSILVKSKSIPADPAPELGLDTSRPIMYVLPYNSKADLLTLRAQCLAHDLPDPLEPLEIDGTLLPRYVFIHGGPRVFTYYTPKEESIKLFHDYLDLHRSNPNLDVQMVPVSVMFGRAPGREKGEVNPPLRMLNGVQKFFAVLWLGRDSFVRFSPSVSLRRMADEHGTDKTIAQKLARVARMHFARQRLAAVGPRLPARQDLFNKLLASRAIAKAVEDEARSKKISHEKAQQNAIALMEEIAANFSYEMIRLTDRILGFTWNRLYQGINVHNAERVRQLAHDGHELVYVPCHRSHMDYLLLSYVLYHQGLVPPHIAAGINLNFWPAGPIFRRLGAFFIRRTFKGNKLYSTVFREYLGELFSRGYSVEYFVEGGRSRTGRLLDPKTGTLSMTIQAMLRGGTRPITLIPIYIGYEHVMEVGTYAKELRGATKEKESLPQMLRGLSKLRNLGQGYVNFGEPMPLMTYLNQHVPDWRESIDPIEAVRPAWLTPTVNNIAADLMVRINNAGAANAMNLCCTALLASRQRSLTREQLTEQLNCYLDLMRNVPYSTDSTVPSASASELIDHALQMNKFEVEKDTIGDIIILPREQAVLMTYYRNNIAHMLVLPSLMAAIVTQHRHISRDVLMEHVNVLYPMLKAELFLRWDRDELPDVIDALANEMQRQGLITLQDDELHINPAHSRTLQLLAAGARETLQRYAITFWLLSANPSINRGTLEKESRTVAQRLSVLHGINAPEFFDKAVFSSLVLTLRDEGYISDSGDAEPAETMKVYQLLAELITSDVRLTIESATQGEG
With B1, the binding result in assay [1] is “binds”.

B2: nascent LeuA (protein, UniProt P09151 1-523)
chain: MSQQVIIFDTTLRDGEQALQASLSVKEKLQIALALERMGVDVMEVGFPVSSPGDFESVQTIARQVKNSRVCALARCVEKDIDVAAESLKVAEAFRIHTFIATSPMHIATKLRSTLDEVIERAIYMVKRARNYTDDVEFSCEDAGRTPIADLARVVEAAINAGATTINIPDTVGYTMPFEFAGIISGLYERVPNIDKAIISVHTHDDLGLAVGNSLAAVHAGARQVEGAMNGIGERAGNCSLEEVIMAIKVRKDILNVHTAINHQEIWRTSQLVSQICNMPIPANKAIVGSGAFAHSSGIHQDGVLKNRENYEIMTPESIGLNQIQLNLTSRSGRAAVKHRMDEMGYKESEYNLDNLYDAFLKLADKKGQVFDYDLEALAFIGKQQEEPEHFRLDYFSVQSGSNDIATAAVKLACGEEVKAEAANGNGPVDAVYQAINRITEYNVELVKYSLTAKGHGKDALGQVDIVANYNGRRFHGVGLATDIVESSAKAMVHVLNNIWRAAEVEKELQRKAQHNENNKETV
In the case of B2, the binding entry in assay [2] is recorded as “binds”.

B3: nascent HflK (protein, UniProt P0ABC7 1-419)
chain: MAWNQPGNNGQDRDPWGSSKPGGNSEGNGNKGGRDQGPPDLDDIFRKLSKKLGGLGGGKGTGSGGGSSSQGPRPQLGGRVVTIAAAAIVIIWAASGFYTIKEAERGVVTRFGKFSHLVEPGLNWKPTFIDEVKPVNVEAVRELAASGVMLTSDENVVRVEMNVQYRVTNPEKYLYSVTSPDDSLRQATDSALRGVIGKYTMDRILTEGRTVIRSDTQRELEETIRPYDMGITLLDVNFQAARPPEEVKAAFDDAIAARENEQQYIREAEAYTNEVQPRANGQAQRILEEARAYKAQTILEAQGEVARFAKLLPEYKAAPEITRERLYIETMEKVLGNTRKVLVNDKGGNLMVLPLDQMLKGGNAPAAKSDNGASNLLRLPPASSSTTSGASNTSSTSQGDIMDQRRANAQRNDYQRQGE
On to B3, for which, in assay [2], the binding result is on record as “binds”.

B4: nascent GltA (protein, UniProt P0ABH7 1-427)
chain: MADTKAKLTLNGDTAVELDVLKGTLGQDVIDIRTLGSKGVFTFDPGFTSTASCESKITFIDGDEGILLHRGFPIDQLATDSNYLEVCYILLNGEKPTQEQYDEFKTTVTRHTMIHEQITRLFHAFRRDSHPMAVMCGITGALAAFYHDSLDVNNPRHREIAAFRLLSKMPTMAAMCYKYSIGQPFVYPRNDLSYAGNFLNMMFSTPCEPYEVNPILERAMDRILILHADHEQNASTSTVRTAGSSGANPFACIAAGIASLWGPAHGGANEAALKMLEEISSVKHIPEFVRRAKDKNDSFRLMGFGHRVYKNYDPRATVMRETCHEVLKELGTKDDLLEVAMELENIALNDPYFIEKKLYPNVDFYSGIILKAMGIPSSMFTVIFAMARTVGWIAHWSEMHSDGMKIARPRQLYTGYEKRDFKSDIKR
As to B4, the binding result in assay [2] is given as “binds”.

B5: nascent RecC (protein, UniProt P07648 1-1122)
chain: MLRVYHSNRLDVLEALMEFIVERERLDDPFEPEMILVQSTGMAQWLQMTLSQKFGIAANIDFPLPASFIWDMFVRVLPEIPKESAFNKQSMSWKLMTLLPQLLEREDFTLLRHYLTDDSDKRKLFQLSSKAADLFDQYLVYRPDWLAQWETGHLVEGLGEAQAWQAPLWKALVEYTHQLGQPRWHRANLYQRFIETLESATTCPPGLPSRVFICGISALPPVYLQALQALGKHIEIHLLFTNPCRYYWGDIKDPAYLAKLLTRQRRHSFEDRELPLFRDSENAGQLFNSDGEQDVGNPLLASWGKLGRDYIYLLSDLESSQELDAFVDVTPDNLLHNIQSDILELENRAVAGVNIEEFSRSDNKRPLDPLDSSITFHVCHSPQREVEVLHDRLLAMLEEDPTLTPRDIIVMVADIDSYSPFIQAVFGSAPADRYLPYAISDRRARQSHPVLEAFISLLSLPDSRFVSEDVLALLDVPVLAARFDITEEGLRYLRQWVNESGIRWGIDDDNVRELELPATGQHTWRFGLTRMLLGYAMESAQGEWQSVLPYDESSGLIAELVGHLASLLMQLNIWRRGLAQERPLEEWLPVCRDMLNAFFLPDAETEAAMTLIEQQWQAIIAEGLGAQYGDAVPLSLLRDELAQRLDQERISQRFLAGPVNICTLMPMRSIPFKVVCLLGMNDGVYPRQLAPLGFDLMSQKPKRGDRSRRDDDRYLFLEALISAQQKLYISYIGRSIQDNSERFPSVLVQELIDYIGQSHYLPGDEALNCDESEARVKAHLTCLHTRMPFDPQNYQPGERQSYAREWLPAASQAGKAHSEFVQPLPFTLPETVPLETLQRFWAHPVRAFFQMRLQVNFRTEDSEIPDTEPFILEGLSRYQINQQLLNALVEQDDAERLFRRFRAAGDLPYGAFGEIFWETQCQEMQQLADRVIACRQPGQSMEIDLACNGVQITGWLPQVQPDGLLRWRPSLLSVAQGMQLWLEHLVYCASGGNGESRLFLRKDGEWRFPPLAAEQALHYLSQLIEGYREGMSAPLLVLPESGGAWLKTCYDAQNDAMLDDDSTLQKARTKFLQAYEGNMMVRGEGDDIWYQRLWRQLTPETMEAIVEQSQRFLLPLFRFNQS
Take B5: in assay [1], the binding result is listed as “binds”.

B6: nascent MaeA (protein, UniProt P26616 1-565)
chain: MEPKTKKQRSLYIPYAGPVLLEFPLLNKGSAFSMEERRNFNLLGLLPEVVETIEEQAERAWIQYQGFKTEIDKHIYLRNIQDTNETLFYRLVNNHLDEMMPVIYTPTVGAACERFSEIYRRSRGVFISYQNRHNMDDILQNVPNHNIKVIVVTDGERILGLGDQGIGGMGIPIGKLSLYTACGGISPAYTLPVVLDVGTNNQQLLNDPLYMGWRNPRITDDEYYEFVDEFIQAVKQRWPDVLLQFEDFAQKNAMPLLNRYRNEICSFNDDIQGTAAVTVGTLIAASRAAGGQLSEKKIVFLGAGSAGCGIAEMIISQTQREGLSEEAARQKVFMVDRFGLLTDKMPNLLPFQTKLVQKRENLSDWDTDSDVLSLLDVVRNVKPDILIGVSGQTGLFTEEIIREMHKHCPRPIVMPLSNPTSRVEATPQDIIAWTEGNALVATGSPFNPVVWKDKIYPIAQCNNAFIFPGIGLGVIASGASRITDEMLMSASETLAQYSPLVLNGEGMVLPELKDIQKVSRAIAFAVGKMAQQQGVAVKTSAEALQQAIDDNFWQAEYRDYRRTSI
For the molecule B6, the binding result in assay [2] was “binds”.

B7: nascent ValS (protein, UniProt P07118 1-951)
chain: MEKTYNPQDIEQPLYEHWEKQGYFKPNGDESQESFCIMIPPPNVTGSLHMGHAFQQTIMDTMIRYQRMQGKNTLWQVGTDHAGIATQMVVERKIAAEEGKTRHDYGREAFIDKIWEWKAESGGTITRQMRRLGNSVDWERERFTMDEGLSNAVKEVFVRLYKEDLIYRGKRLVNWDPKLRTAISDLEVENRESKGSMWHIRYPLADGAKTADGKDYLVVATTRPETLLGDTGVAVNPEDPRYKDLIGKYVILPLVNRRIPIVGDEHADMEKGTGCVKITPAHDFNDYEVGKRHALPMINILTFDGDIRESAQVFDTKGNESDVYSSEIPAEFQKLERFAARKAVVAAVDALGLLEEIKPHDLTVPYGDRGGVVIEPMLTDQWYVRADVLAKPAVEAVENGDIQFVPKQYENMYFSWMRDIQDWCISRQLWWGHRIPAWYDEAGNVYVGRNEDEVRKENNLGADVVLRQDEDVLDTWFSSALWTFSTLGWPENTDALRQFHPTSVMVSGFDIIFFWIARMIMMTMHFIKDENGKPQVPFHTVYMTGLIRDDEGQKMSKSKGNVIDPLDMVDGISLPELLEKRTGNMMQPQLADKIRKRTEKQFPNGIEPHGTDALRFTLAALASTGRDINWDMKRLEGYRNFCNKLWNASRFVLMNTEGQDCGFNGGEMTLSLADRWILAEFNQTIKAYREALDSFRFDIAAGILYEFTWNQFCDWYLELTKPVMNGGTEAELRGTRHTLVTVLEGLLRLAHPIIPFITETIWQRVKVLCGITADTIMLQPFPQYDASQVDEAALADTEWLKQAIVAVRNIRAEMNIAPGKPLELLLRGCSADAERRVNENRGFLQTLARLESITVLPADDKGPVSVTKIIDGAELLIPMAGLINKEDELARLAKEVAKIEGEISRIENKLANEGFVARAPEAVIAKEREKLEGYAEAKAKLIEQQAVIAAL
Consider B7, for which, in assay [3], the binding result was “binds”.
